Each number is a percent effect as filed. The record does not define 0% and 100%; most values in the screen are far below 50% and negative numbers occur (in some assays of this library far below -100). Compounds were drawn at random from those tested, without regard to their results.

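Whole-parasite assay of Trypanosoma brucei over 72 hours; the read-out is not stated. Compounds at 10 µM. The record gives no direction; compounds that gave an IC50 in retests scored well above the rest, so higher reads as stronger inhibition. Values scatter widely below zero; nearly all retest evidence comes from the higher of the two concentrations used. Of about 2,700 compounds tested this way, about 14 (0.51%) reached 50% or more in at least one test.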

| # | Compound | percent effect |
|---|---|---|
| 1 | `CCn1ccnc1CN1CCCN(C(=O)c2ccnn2C)CC1` | -68.12% |
| 2 | `O=C(CN1CCOC(CNc2cccnn2)C1)N1CCCCC1` (stereo not shown) | -43.31% |
| 3 | `Cc1nc(C)n(CC2CN(CCOc3cccc(F)c3)CCO2)n1` (stereo not shown) | -4.592% |
| 4 | `CN(Cc1cnn(C)c1)C(=O)NCCc1ccc2c(c1)OCCO2` | -41.63% |
| 5 | `O=C(NCC(c1ccccc1)N1CCOCC1)Nc1cn[nH]c1` (stereo not shown) | -36.82% |
| 6 | `Cc1ccc(-c2cc(C(=O)NCCN3CCCS3(=O)=O)[nH]n2)cc1` | -73.05% |
| 7 | `Cc1ncsc1C(=O)NCCc1cccs1` | -45.09% |
| 8 | `CCn1cc(CN2CCCN(C(=O)c3ccc(C)o3)CC2)cn1` | -41.48% |
| 9 | `CCCn1[nH]cc/c1=N\C(=O)CN1CCc2cnc(C(C)C)nc2C1` | -28.74% |
| 10 | `O=C(NCCc1coc(-c2ccccc2)n1)NC1CC1` | 101.4% |
| 11 | `CCN(CC)c1ccc(C(=O)N2CCC(c3nc(C)no3)CC2)cn1` | -71.9% |
| 12 | `c1ccc(-n2ccc(CN3CCCC(Cn4cncn4)C3)n2)cc1` (stereo not shown) | -12.12% |
| 13 | `CNc1nc(CNC(=O)Nc2cccc(CSC)c2)cs1` | -47.29% |
| 14 | `Cc1nnc(C2Cc3ccccc3CN2Cc2c(C)noc2C)o1` (stereo not shown) | -63.62% |
| 15 | `CCC(O)CN1CCN(C(=O)c2sccc2C(C)C)CC1` (stereo not shown) | -57.54% |
| 16 | `c1cnn(CC2CCCN2Cc2ccc(-n3cccn3)cc2)c1` (stereo not shown) | -35.79% |
| 17 | `CCc1ccsc1C(=O)N1CCN(CC(C)O)CC1` (stereo not shown) | -63.61% |
| 18 | `Cc1nc2c(c(C)c1CC(=O)NCc1ccc(F)cc1)c(=O)[nH]n2C` | -70.44% |
| 19 | `Cc1ccc(C(=O)N2CCC(c3n[nH]c(C4CC4)n3)CC2)cc1F` | -24.75% |
| 20 | `O=C(CCCn1cncn1)N1CCCC1c1noc(C2CC2)n1` (stereo not shown) | -69.42% |
| 21 | `COCc1ccc(CNc2cncc(-n3cccn3)n2)cc1` | -41.03% |
| 22 | `CC(C)COC(C)C(=O)NCc1ccc(F)cc1` (stereo not shown) | -61.4% |
| 23 | `Cc1csc(N2CCN(CC(=O)Nc3ccncc3)CC2C)n1` (stereo not shown) | -35.25% |
| 24 | `CN(Cc1cnn(C)c1)C(=O)NCc1cc(Br)cs1` | -12.04% |
| 25 | `Cc1ccc(C(=O)NCc2cccnc2N(C)C)o1` | -18.8% |
| 26 | `Cc1cc(C(=O)N2CCCC(n3cncn3)C2)on1` (stereo not shown) | -34.47% |
| 27 | `Cn1cc(C2CCCN2Cc2csc(Cc3ccccc3)n2)cn1` (stereo not shown) | 5.119% |
| 28 | `Cc1nn(C)c(Cl)c1C1CCCN1Cc1cccc(C(N)=O)c1` (stereo not shown) | -20.48% |
| 29 | `OCCN1CCN(Cc2coc(-c3ccccc3)n2)CC1` | -45.22% |
| 30 | `O=S(=O)(CCN1CCCCC1Cn1cncn1)c1ccccc1` (stereo not shown) | -40.78% |
| 31 | `O=C(CCN1CCOC(Cn2cccn2)C1)NC1CCCCC1` (stereo not shown) | -30.36% |
| 32 | `CN1CCC/C1=N\S(=O)(=O)c1ccc(NC(=O)c2ccc(Cl)s2)cc1` | -51.25% |
| 33 | `CNC(=O)NCc1nn(-c2ccccc2)c2c1CCC2` | -15.06% |
| 34 | `CCc1nc(C)c(C(=O)NCCn2nc3ccccn3c2=O)s1` | -90.71% |
| 35 | `COc1cccc(-n2c(C)cc(C(=O)NCCCC(N)=O)c2C)c1` | -3.013% |
| 36 | `COc1cccc(C(=O)N2CCC(Nc3ccc(C)nn3)CC2)c1` | -12.28% |
| 37 | `COc1ccc(COCC(O)CNC(=O)c2ccncc2)cc1` (stereo not shown) | -41.61% |
| 38 | `CN(C)c1ncccc1CNS(=O)(=O)c1cc(F)cc(F)c1` | -32.45% |
| 39 | `CCNC(=O)N(C)C1CCN(Cc2ncc(C)c(OC)c2C)CC1` | -34.27% |
| 40 | `Cc1nc(C)n(CC2CCCN2CCc2ccncc2)n1` (stereo not shown) | -45.02% |
| 41 | `CCN1CCN(C2CCN(Cc3nc(C4CC4)no3)CC2)C1=O` | 3.162% |
| 42 | `Cc1cnn(CC2CCCCN2c2nn3cc(C)nc3s2)c1` (stereo not shown) | -42.11% |
| 43 | `O=C(NCCCN1CCc2ccccc2C1)c1ccccc1Br` | 6.773% |
| 44 | `CCCNC(=O)C1CCCN(Cc2csc(C(C)(C)C)n2)C1` (stereo not shown) | -60.09% |
| 45 | `Cc1cccc(-c2noc(CN3CCCCC3Cn3cncn3)n2)c1` (stereo not shown) | -41.22% |
| 46 | `Cc1cc(C)n(CC2CCCN2C(=O)c2cccc3c2OCO3)n1` (stereo not shown) | 31.14% |
| 47 | `Cc1c(C(=O)N2CCCC(n3cncn3)C2)cnn1C` (stereo not shown) | -74.94% |
| 48 | `O=C(COC1CCCCC1)N1CCCC(n2ccnc2)C1` (stereo not shown) | -62.94% |
| 49 | `Cc1ccoc1C(=O)NC1CCN(Cc2cccc3ccccc23)CC1` | -9.27% |
| 50 | `CCOc1ncccc1NC(=O)NCC(O)c1ccc(OC)cc1` (stereo not shown) | -18.15% |
| 51 | `Cn1nc2c(cc1=O)CN(Cc1nc(-c3ccco3)no1)CC2` | -54.09% |
| 52 | `Cn1cnnc1C1CCCN(C(=O)NCc2ccccn2)C1` (stereo not shown) | -44.23% |
| 53 | `Cc1nc(CN2CCCC(N(C)Cc3nccn3C)C2)no1` (stereo not shown) | -4.892% |

The values are deposited in ChEMBL (CHEMBL3988442, “University of Dundee, Small-Polar-MMV Screening Library” (2021)).